Values from PubChem BioAssay AID1259308 (NCATS, 2017)
The whole screen tested about 59,000 reagents; shown is a part drawn at random. About 1,510 of them (2.6%) were called active. 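Calls use total luciferase alone and ignore viability, so some active siRNAs may act by altering cell number.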 Not all columns of the deposit are shown.

- Screen: 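Candidate targets for better recombinant protein yield in mammalian cells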 (primary screen)
- Cells: human HEK293 embryonic kidney cells stably expressing firefly luciferase (HEK-CMV-Luc2-Hygro)
- Reagents: single siRNA against human genes, 0.8 pmol siRNA per well
- Timing: 72 h
- Read-out: 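Luciferase light (ONE-Glo) measured on one replicate plate set and viability (CellTiter-Glo) on the other, scaled to a negative control siRNA, with robust z-scores and luciferase per cell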
- Scale: total luciferase, z-score: higher = more reporter protein produced
- Rule for the call: 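An siRNA counts as active if its total luciferase robust z-score exceeds 3; genes with two or more such siRNAs out of three were retested with fresh siRNAs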
- Meaning of the calls: active = raised luciferase; inactive = no rise

Silencing of ACTN4 [SID160778106] gave: total luciferase, z-score 2.19; inactive.
ACTN4 [SID160778114] showed total luciferase, z-score -0.458; inactive.
ACTN4 [SID160778125] showed total luciferase, z-score -0.0285; inactive.
Knock-down of PPP1R35 [SID160724935] came out at: total luciferase, z-score 1.93; inactive.
Knock-down of PPP1R35 [SID160761772] gave: total luciferase, z-score 0.525; inactive.
Depletion of PPP1R35 [SID160761773] gave: total luciferase, z-score 0.92; inactive.
Depletion of DIO1 [SID160754356] gave: total luciferase, z-score 0.82; inactive.
For DIO1 [SID160754367], the entry reads total luciferase, z-score -1.15; inactive.
For DIO1 [SID160754378], the values are total luciferase, z-score -1.73; inactive.
PSME1 [SID160715268] scored total luciferase, z-score -0.566; inactive.
For PSME1 [SID160715269], the values are total luciferase, z-score 2.05; inactive.
PSME1 [SID160715270] gave total luciferase, z-score 2.24; inactive.
For GMCL1 [SID160747709], the values are total luciferase, z-score 0.0506; inactive.
After knock-down of GMCL1 [SID160747710], the screen gave total luciferase, z-score -0.117; inactive.
After knock-down of GMCL1 [SID160747711], the screen gave total luciferase, z-score 0.584; inactive.
Depletion of LRRC57 [SID160762298] gave: total luciferase, z-score 0.0968; inactive.
Depletion of LRRC57 [SID160762300] gave: total luciferase, z-score 0.378; inactive.
Against LRRC57 [SID160762301], the values are total luciferase, z-score 0.494; inactive.
For EVA1B [SID160733588], the entry reads total luciferase, z-score 4.03; active.
EVA1B [SID160733589] scored total luciferase, z-score -1.33; inactive.
With knock-down of EVA1B [SID160743190], the screen gave total luciferase, z-score 2.03; inactive.
Silencing of MTM1 [SID160731251] gave: total luciferase, z-score 0.751; inactive.
With knock-down of MTM1 [SID160777538] the results were total luciferase, z-score -0.021; inactive.
With knock-down of MTM1 [SID160777539] the results were total luciferase, z-score 1.01; inactive.
For MRPL48 [SID160741132], the entry reads total luciferase, z-score 0.525; inactive.
With knock-down of MRPL48 [SID160741134], the record shows total luciferase, z-score -1.06; inactive.
Against MRPL48 [SID160741135], the values are total luciferase, z-score -0.711; inactive.
Depletion of SLC47A2 [SID160758416] came out at: total luciferase, z-score -1.44; inactive.
Silencing of SLC47A2 [SID160758418] gave: total luciferase, z-score -0.00185; inactive.
Against SLC47A2 [SID160758419] the deposit lists total luciferase, z-score 1.25; inactive.
After knock-down of ABL1 [SID160777103] the results were total luciferase, z-score -1.58; inactive.
ABL1 [SID160777114] showed total luciferase, z-score -0.824; inactive.
For ABL1 [SID160777125], the values are total luciferase, z-score -0.668; inactive.

No new results follow: an excerpt of the list.
SLC47A2 [SID160758419] | total luciferase, z-score = 1.25; Outcome = inactive
ABL1 [SID160777103] | total luciferase, z-score = -1.58; Outcome = inactive
ABL1 [SID160777114] | total luciferase, z-score = -0.824; Outcome = inactive
ABL1 [SID160777125] | total luciferase, z-score = -0.668; Outcome = inactive
